The source of these data is PubChem BioAssay AID328 (DTP/NCI, 2004).

Molecules are shown by their SMILES. The list is a part of this screen's results and no random one: it is rich in T/C values a quarter to a half above the control, in often repeated tests (any T/C) and in doses without a T/C. Further doses and runs are listed elsewhere. T/C: endpoint of the treated group in % of that of the vehicle group. Some entries give survivors of the animals treated and no T/C: the source holds a T/C of zero for them, seemingly a mark for toxic or unscored doses. Some survivor counts are full or nearly so, which does not show that the dose was tolerated: the source hardly ever lists a survival T/C far under the control, and the zero likely stands for such cases as well. Survivors were counted at the toxicity check, usually on the fifth day, unless a day is given; later deaths do not show. Schedules are NCI's codes, taken here to give the interval after Q, in days (D) or hours (H), and the number of doses after X. Some doses were run more than once; the results are listed from low to high. Additions like (4×) stand for listed records that agree. For survival time, this PubChem deposit counts one and a half times the control or more as active, and values a quarter to a half above the control carry no call in these data; other NCI protocols may use other cut-offs. Some T/C values carry the count of animals alive at the toxicity check (mostly the fifth day); where none is given, no animal had died by that day.

The experiment concerns BDF1 mice, P388 leukemia ip, median survival T/C. Briefly: NCI In Vivo Anticancer Drug Screen. Data for tumor model P388 Leukemia (intraperitoneal) in B6D2F1 (BDF1) mice. Particulars: T/C endpoint: median survival time, higher T/C = longer survival. The method, boiled down: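 Transplantable tumour in mice; compound vs vehicle dosing; survival scored; ratio of treated to control reported.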

The mark [1] stands for this setting: dose: 100.0 mg/kg/injection, schedule: Q01DX009 (ip), vehicle: Klucel (hydroxypropylcellulose) (HPC).
The mark [2] stands for this setting: dose: 200.0 mg/kg/injection, schedule: Q01DX009 (ip), vehicle: Klucel (hydroxypropylcellulose) (HPC).
The mark [3] stands for this setting: dose: 200.0 mg/kg/injection, schedule: Q01DX009 (ip), vehicle: other.
Setting [4] is: dose: 400.0 mg/kg/injection, schedule: Q01DX009 (ip), vehicle: other.
Setting [5] is: dose: 3.13 mg/kg/injection, schedule: Q01DX009 (ip), vehicle: saline.
Where [6] appears, read: dose: 25.0 mg/kg/injection, schedule: Q01DX009 (ip), vehicle: saline.
The mark [7] stands for this setting: dose: 100.0 mg/kg/injection, schedule: Q04DX003 (ip), vehicle: saline.
[8] abbreviates: dose: 50.0 mg/kg/injection, schedule: Q01DX009 (ip), vehicle: other.

On to `COc1ccc2ccccc2c1C1NC(=O)c2ccccc2N1` (stereo not drawn), for which the T/C is 125 and 133 % of control under setting [1]; 125 % of control under setting [2]. In addition, the survivor count (dose: 400.0 mg/kg/injection, schedule: Q01DX009 (ip), vehicle: Klucel (hydroxypropylcellulose) (HPC)) was 4 of 6.

Regarding `O=C(Nc1ccc([N+](=O)[O-])cc1)Nc1ccc([N+](=O)[O-])c(C(F)(F)F)c1`, the survivor count by setting is: (dose: 170.0 mg/kg/injection, schedule: Q01DX009 (ip), vehicle: Klucel (hydroxypropylcellulose) (HPC)) 6 of 6; (dose: 225.0 mg/kg/injection, schedule: Q01DX009 (ip), vehicle: Klucel (hydroxypropylcellulose) (HPC)) 5 of 6.

Regarding `O=C(O)C(CCO)C(=O)C(F)(F)F` (stereo not drawn), the survivor count by setting is: under setting [3], 2 of 6; under setting [4], 0 of 6.

Regarding `C/C=C/c1ccc2ccc[n+](C)c2c1O`, the T/C (dose: 100.0 mg/kg/injection, schedule: Q04DX003 (ip), vehicle: saline sonified) is 125 % of control.

For `O=P(NC1CCCC1)(N1CC1)N1CC1`, the T/C under setting [5] is 141 % of control. Also, the survivor count is reported as 6 of 6 under setting [6]; 0 of 6 under setting [7]; 3 of 6 (dose: 200.0 mg/kg/injection, schedule: Q04DX003 (ip), vehicle: saline); 2 of 6 (dose: 400.0 mg/kg/injection, schedule: Q04DX003 (ip), vehicle: saline).

As for `C=C1[C@@H](C)[C@H]2[C@H](Cc3ccccc3)NC(=O)[C@]23OC(=O)/C=C/[C@H](O)CCC[C@@H](C)C/C=C/[C@H]3[C@@H]1O`, the survivor count (dose: 0.5 mg/kg/injection, schedule: Q04DX002 (ip), vehicle: saline) was 3 of 3. For the same compound, the T/C (dose: 4.0 mg/kg/injection, schedule: Q04DX002 (ip), vehicle: saline) was 127 % of control [2 of 3 alive].

As for `Cc1ccc(S(=O)(=O)N/N=C/C(=O)O)cc1`, the T/C by setting is: (dose: 12.5 mg/kg/injection, schedule: Q01DX009 (ip), vehicle: Klucel (hydroxypropylcellulose) (HPC)) 128 % of control; (dose: 12.5 mg/kg/injection, schedule: Q01DX009 (ip), vehicle: other) 128 and 135 % of control; (dose: 25.0 mg/kg/injection, schedule: Q01DX009 (ip), vehicle: Klucel (hydroxypropylcellulose) (HPC)) 141 and 149 % of control; (dose: 25.0 mg/kg/injection, schedule: Q01DX009 (ip), vehicle: other, evaluated on day 30) 138, 144, 158 % of control; (dose: 25.0 mg/kg/injection, schedule: Q01DX009 (ip), vehicle: other, evaluated on day 45) 166 % of control; (dose: 50.0 mg/kg/injection, schedule: Q01DX009 (ip), vehicle: other, evaluated on day 30) 181 and 197 % of control. Besides, the T/C reads like this: (dose: 50.0 mg/kg/injection, schedule: Q01DX009 (ip), vehicle: other, evaluated on day 45) 175 % of control; under setting [1], 125 % of control [5 of 6 alive]; (dose: 100.0 mg/kg/injection, schedule: Q01DX009 (ip), vehicle: other, evaluated on day 30) 100 and 103 % of control; (dose: 100.0 mg/kg/injection, schedule: Q01DX009 (ip), vehicle: other, evaluated on day 45) 129 % of control. Further, the survivor count runs as follows: under setting [8], 6 of 6; (dose: 100.0 mg/kg/injection, schedule: Q01DX009 (ip), vehicle: other) 6 of 6; under setting [2], 5 of 6 (2×) and 6 of 6; under setting [3], 4 of 6 and 6 of 6; under setting [4], 0 of 6.

With `CC(=O)OCC(=O)[C@@]1(O)CC[C@H]2[C@@H]3CCC4=CC(=O)CC[C@]4(C)[C@H]3[C@@H](O)C[C@@]21C`, the survivor count was 6 of 6 (dose: 200.0 mg/kg/injection, schedule: Q01DX010 (sc), vehicle: saline); 6 of 6 (dose: 400.0 mg/kg/injection, schedule: Q01DX010 (sc), vehicle: saline); 6 of 6 (dose: 600.0 mg/kg/injection, schedule: Q01DX010 (sc), vehicle: saline); 6 of 6 (dose: 800.0 mg/kg/injection, schedule: Q01DX010 (sc), vehicle: saline).

In the case of `O=Nc1c(N=O)c(N=O)c(N=O)c(N=O)c1N=O`, the survivor count (dose: 10.0 mg/kg/injection, schedule: Q01DX010 (ip), vehicle: saline) is 6 of 6; the survivor count (dose: 20.0 mg/kg/injection, schedule: Q01DX010 (ip), vehicle: saline) was 6 of 6; the survivor count (dose: 40.0 mg/kg/injection, schedule: Q01DX010 (ip), vehicle: saline) is recorded as 6 of 6; the survivor count (dose: 160.0 mg/kg/injection, schedule: Q01DX010 (ip), vehicle: saline) is listed as 0 of 6.

Consider `O=C1c2ccccc2C(=O)c2c(NCCCCCO)ccc(NCCCCCO)c21`, for which the survivor count under setting [8] is reported as 6 of 6, the survivor count under setting [3] is listed as 6 of 6 and the survivor count under setting [4] is 5 of 6.

As to `CCc1cccc(CC)c1-n1c(C)ccc1-c1ccccc1`, the survivor count (dose: 400.0 mg/kg/injection, schedule: Q01DX009 (ip), vehicle: saline + alcohol) was 5 of 6.

Regarding `COc1cc(N2CCOCC2)ccc1N`, the T/C by setting is: under setting [5], 132 % of control; (dose: 44.0 mg/kg/injection, schedule: Q04DX003 (ip), vehicle: saline) 130 % of control; (dose: 50.0 mg/kg/injection, schedule: Q04DX003 (ip), vehicle: saline) 136 % of control; (dose: 67.0 mg/kg/injection, schedule: Q04DX003 (ip), vehicle: saline) 143 % of control; under setting [7], 129 and 140 % of control [5 of 6 alive]. Also, the survivor count is 0 of 3 (dose: 12.5 mg/kg/injection, schedule: Q01DX009 (ip), vehicle: saline); 0 of 3 under setting [6]; 0 of 3 (dose: 50.0 mg/kg/injection, schedule: Q01DX009 (ip), vehicle: saline); 0 of 3 (dose: 100.0 mg/kg/injection, schedule: Q01DX009 (ip), vehicle: saline); 1 of 6 under setting [7]; 1 of 6 and 3 of 6 (dose: 150.0 mg/kg/injection, schedule: Q04DX003 (ip), vehicle: saline).

With `[O-]c1on[n+](C2CCCCC2)c1-c1ccccc1`, the survivor count (dose: 400.0 mg/kg/injection, schedule: Q01DX009 (ip), vehicle: saline with Tween-80) is on record as 6 of 6.

On to `OC(c1ccc(Cl)cc1)(c1ccc(Cl)cc1)C(F)(F)F`, for which the survivor count was 6 of 6 (dose: 200.0 mg/kg/injection, schedule: Q01DX009 (sc), vehicle: olive oil, sesame oil, peanut oil) and 6 of 6 (dose: 400.0 mg/kg/injection, schedule: Q01DX009 (sc), vehicle: olive oil, sesame oil, peanut oil).

Take `CCN1C(=O)C(=O)c2ccccc21`: the survivor count is, setting by setting: (dose: 150.0 mg/kg/injection, schedule: Q01DX009 (ip), vehicle: saline with Tween-80) 6 of 6; (dose: 300.0 mg/kg/injection, schedule: Q01DX009 (ip), vehicle: saline with Tween-80) 3 of 6.

With `NC(N)=NC(N)=Nc1ccc2ccc3cccc4ccc1c2c34`, for the setting “dose: 100.0 mg/kg/injection, schedule: Q04DX003 (ip), vehicle: saline + alcohol”, the survivor count is listed as 3 of 6.

With `CCN1C(=O)CSC1=S`, the survivor count (dose: 500.0 mg/kg/injection, schedule: Q01DX010 (ip), vehicle: saline) is 0 of 6.

As for `CC1=C(/C=C/C(C)=C/C=C/C(C)=C/C(=O)O)C(C)(C)CCC1`, the survivor count is given as 6 of 6 (dose: 50.0 mg/kg/injection, schedule: Q01DX009 (ip), vehicle: saline with Tween-80); 6 of 6 (dose: 100.0 mg/kg/injection, schedule: Q01DX009 (ip), vehicle: saline with Tween-80); 6 of 6 (dose: 200.0 mg/kg/injection, schedule: Q01DX009 (ip), vehicle: saline with Tween-80).
